Here are results for six sequences from article PMC6593165.

The exact form of at least one protein or probe is not confirmed. A negative result means that nothing was seen under these conditions.

The data set has as its system GST-WRKY72 (Oryza sativa (rice, Nipponbare)). As to the kind of experiment: EMSA. As to conditions: EMSA: 10 mM Tris-HCl pH 7.5, 50 mM KCl, 1 mM DTT, 2.5% glycerol, 5 mM MgCl2, 50 ng/uL poly(dI-dC), 0.05% NP-40, room temperature, 20 fmol biotin probe, 6% PAGE, recombinant protein, protein details: GST (N-terminal, pGEX-4T-1), label: biotin.

Take “AAGGTGGTGAGCCCAATCACCACCTTACTGGTAAGGCTGCCGAAGACCGCTCCGCTGGCC (double strand) [AOS1 probe 4 (TaaggC)]”: the binding result was “no binding”.

In the case of “AAGGTGGTGAGCCCAATCACCACCTTACTGGTTGAAATGCCGAAGACCGCTCCGCTGGCC (double strand) [AOS1 probe 2 (TTGAaa)]”, the binding result is listed as “no binding”.

As to “AAGGTGGTGAGCCCAATCACCACCTTACTGGTTGACCTGCCGAAGACCGCTCCGCTGGCC (double strand) [AOS1 probe 1 (W-box)]”, where the note is “5-, 10-, 30-fold unlabeled probe weakened the shift”, the binding result is on record as “binds”.

On to “AAGGTGGTGAGCCCAATCACCACCTTACTGGTTGGGGTGCCGAAGACCGCTCCGCTGGCC (double strand) [AOS1 probe 3 (TTGggg)]”, for which the binding result was “no binding”.

As to “TCGGTCCGATCGATCGAGTCCACGGCCATGAGCTTAGCTTGTCATGCACGTAGCTTAATTAGGCCCGGAACTTCCAGTCT (double strand) [LOX1 probe]”, the binding result was “no binding”.

On to “TTGGAAAGGTACGATGTCAAAAAAATAAATTTGACCATTATTTTCTATTATAATATGTAT (double strand) [AOC probe]”, for which the binding result is recorded as “no binding”.
